The target in the assay is HA-tagged ribosomal protein RpS5b (Drosophila) (UniProt Q9VFE4). Kind of assay: co-IP.

Results are given in words; binding and its absence hold for the method and conditions named. Binding seen in cells or lysates may run through a third protein. Binding can be weak; no strength is given.

On to RpL26 (from UniProt Q9VVU2), for which the binding result is “binds”.

These data come from publication doi:10.1101/2022.07.07.499147.
